Test [1] deals with T1, BLM-TOP3A-RMI (BTR) complex (human, UniProt P54132 1-1417; Q13472 1-1001; Q9H9A7 1-625; Q96E14 2-147, limits assumed).
T1 construct: Endogenous complex in cell lysates (BLM, TOP3A, RMI1, RMI2); In the co-IPs it is read out by TOP3A and/or RMI1 immunoblot
The test is described as follows: competition co-IP: peptide added to cellular lysates, Flag-FANCM IP.

Protein sequences, listed by entry. Tags and fused reporters are not part of them. Lines headed by an entry give the natural chain unless they say otherwise; changes in a name come on top.
UniProt P54132: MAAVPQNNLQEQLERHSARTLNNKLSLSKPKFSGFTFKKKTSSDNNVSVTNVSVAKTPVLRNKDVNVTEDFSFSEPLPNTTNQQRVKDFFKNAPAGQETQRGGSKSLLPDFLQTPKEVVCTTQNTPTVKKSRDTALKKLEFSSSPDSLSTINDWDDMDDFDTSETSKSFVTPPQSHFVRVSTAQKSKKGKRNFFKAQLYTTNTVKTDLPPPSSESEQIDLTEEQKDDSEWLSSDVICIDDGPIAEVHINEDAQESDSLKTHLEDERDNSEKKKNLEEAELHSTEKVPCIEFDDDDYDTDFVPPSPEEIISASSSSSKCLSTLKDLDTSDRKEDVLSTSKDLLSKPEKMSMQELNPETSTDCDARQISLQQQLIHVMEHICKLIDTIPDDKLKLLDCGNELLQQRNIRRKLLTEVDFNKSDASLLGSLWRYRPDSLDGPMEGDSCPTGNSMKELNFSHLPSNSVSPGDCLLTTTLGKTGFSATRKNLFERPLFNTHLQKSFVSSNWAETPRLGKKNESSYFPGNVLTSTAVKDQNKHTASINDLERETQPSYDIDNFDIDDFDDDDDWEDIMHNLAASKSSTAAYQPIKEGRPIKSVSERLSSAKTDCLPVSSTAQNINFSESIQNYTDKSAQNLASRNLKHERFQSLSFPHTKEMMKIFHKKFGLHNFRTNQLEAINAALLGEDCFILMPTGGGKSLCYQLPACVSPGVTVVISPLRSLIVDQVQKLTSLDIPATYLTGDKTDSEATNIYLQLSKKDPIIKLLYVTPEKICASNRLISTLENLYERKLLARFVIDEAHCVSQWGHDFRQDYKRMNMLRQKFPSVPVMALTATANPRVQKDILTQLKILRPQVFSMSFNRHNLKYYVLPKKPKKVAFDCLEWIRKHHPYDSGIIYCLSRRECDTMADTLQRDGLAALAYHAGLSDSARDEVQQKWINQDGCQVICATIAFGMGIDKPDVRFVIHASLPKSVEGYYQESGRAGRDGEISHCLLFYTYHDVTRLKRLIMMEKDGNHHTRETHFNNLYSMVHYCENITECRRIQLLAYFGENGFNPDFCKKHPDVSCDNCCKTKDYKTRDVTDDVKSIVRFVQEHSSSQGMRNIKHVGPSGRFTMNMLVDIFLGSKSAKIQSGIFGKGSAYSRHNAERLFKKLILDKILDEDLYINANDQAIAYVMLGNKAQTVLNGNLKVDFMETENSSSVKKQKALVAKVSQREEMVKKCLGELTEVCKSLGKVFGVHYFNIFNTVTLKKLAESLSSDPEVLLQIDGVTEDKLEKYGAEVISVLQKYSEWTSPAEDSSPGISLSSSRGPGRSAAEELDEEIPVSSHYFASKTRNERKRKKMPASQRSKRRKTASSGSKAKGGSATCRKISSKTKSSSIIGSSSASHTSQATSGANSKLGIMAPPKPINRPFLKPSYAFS

Test [2] concerns the target T1, BLM-TOP3A-RMI (BTR) complex. The test is described as follows: competition co-IP: peptide added to HEK-293 Flag-FANCM lysate, Flag IP, TOP3A immunoblot. The procedure:
For co-IP experiments involved the ER-inducible system, cells were lysed in IP buffer (20 mM Tris-HCl pH 7.5, 100 mM NaCl, 10% (v/v) glycerol, 0.5 mM EDTA, 1 mM DTT) supplemented with 1× mammalian protease inhibitor cocktail (Sigma Aldrich) and 50 U/ml Benzonase (Novagen) for 2 h at 4° C., with or without MM2 peptide variants (Mimotopes). Following lysis, NaCl concentration was increased to 250 mM, then the lysate cleared at 16,000×g for 15 mins. Supernatant was then mixed with 1 μg of α-FANCM (Abcam) or α-ER (Santa Cruz Biotechnology) and 20 μl protein G sepharose (GE Healthcare), or using α-Flag M2 agarose (Sigma Aldrich). Following 3 h of mixing at 4° C., beads were washed 4× with IP buffer, and 1× with 50 mM NH₄(CO₃)₂, 0.5 mM EDTA, then eluted with 500 mM NH₄OH (pH 11.0), 0.5 mM EDTA. Samples were then lyophilized and resuspended in 1×LDS loading buffer (Life Technologies) prior to immunoblotting.
To explore the possibility of specifically targeting ALT cell viability through FANCM, two approaches to disrupt the FANCM-BTR complex were adopted. […] To investigate the effects of FANCM-BTR complex disruption in ALT cells, the MM2 peptide was rendered functionally dependent on tamoxifen by fusion to the C-terminus of the estrogen receptor (MM2-ER) (FIG. 11a). […]
(A western blot detects proteins with antibodies after separation by electrophoresis.)

These are yes or no findings as the source states them, for the method shown. In cells and extracts the contact can be indirect. Some entries that bind do so weakly or less than the wild type.

Consider EDIFDCSRDLFSVTFDLGFCSPDSDDEILEHTSD [wildtype human FANCM MM2 peptide (chemically synthesized, 28 amino acids of the MM2 domain)], for which the binding entry in test [1] and in test [2] was “binds” throughout.

Values taken from US20230149507A1, “TREATMENT OF ALT CANCERS” (INSTITUTO DE MEDICINA MOLECULAR JOÃO LOBO ANTUNES, priority 2019, published 2023).
